These are yes or no findings as the source states them, for the method shown. In cells and extracts the contact can be indirect. Some binding calls cover weakened binding; strength is not graded here.
Assays:
[1] = biological target: UNC-104::mRFP (C. elegans) (UniProt P23678); assay: co-IP
[2] = biological target: UNC-104::VC155 (C. elegans) (UniProt P23678); assay: split reporter

The chains behind the UniProt entries cited, without tags or fusion partners.
UniProt P23678: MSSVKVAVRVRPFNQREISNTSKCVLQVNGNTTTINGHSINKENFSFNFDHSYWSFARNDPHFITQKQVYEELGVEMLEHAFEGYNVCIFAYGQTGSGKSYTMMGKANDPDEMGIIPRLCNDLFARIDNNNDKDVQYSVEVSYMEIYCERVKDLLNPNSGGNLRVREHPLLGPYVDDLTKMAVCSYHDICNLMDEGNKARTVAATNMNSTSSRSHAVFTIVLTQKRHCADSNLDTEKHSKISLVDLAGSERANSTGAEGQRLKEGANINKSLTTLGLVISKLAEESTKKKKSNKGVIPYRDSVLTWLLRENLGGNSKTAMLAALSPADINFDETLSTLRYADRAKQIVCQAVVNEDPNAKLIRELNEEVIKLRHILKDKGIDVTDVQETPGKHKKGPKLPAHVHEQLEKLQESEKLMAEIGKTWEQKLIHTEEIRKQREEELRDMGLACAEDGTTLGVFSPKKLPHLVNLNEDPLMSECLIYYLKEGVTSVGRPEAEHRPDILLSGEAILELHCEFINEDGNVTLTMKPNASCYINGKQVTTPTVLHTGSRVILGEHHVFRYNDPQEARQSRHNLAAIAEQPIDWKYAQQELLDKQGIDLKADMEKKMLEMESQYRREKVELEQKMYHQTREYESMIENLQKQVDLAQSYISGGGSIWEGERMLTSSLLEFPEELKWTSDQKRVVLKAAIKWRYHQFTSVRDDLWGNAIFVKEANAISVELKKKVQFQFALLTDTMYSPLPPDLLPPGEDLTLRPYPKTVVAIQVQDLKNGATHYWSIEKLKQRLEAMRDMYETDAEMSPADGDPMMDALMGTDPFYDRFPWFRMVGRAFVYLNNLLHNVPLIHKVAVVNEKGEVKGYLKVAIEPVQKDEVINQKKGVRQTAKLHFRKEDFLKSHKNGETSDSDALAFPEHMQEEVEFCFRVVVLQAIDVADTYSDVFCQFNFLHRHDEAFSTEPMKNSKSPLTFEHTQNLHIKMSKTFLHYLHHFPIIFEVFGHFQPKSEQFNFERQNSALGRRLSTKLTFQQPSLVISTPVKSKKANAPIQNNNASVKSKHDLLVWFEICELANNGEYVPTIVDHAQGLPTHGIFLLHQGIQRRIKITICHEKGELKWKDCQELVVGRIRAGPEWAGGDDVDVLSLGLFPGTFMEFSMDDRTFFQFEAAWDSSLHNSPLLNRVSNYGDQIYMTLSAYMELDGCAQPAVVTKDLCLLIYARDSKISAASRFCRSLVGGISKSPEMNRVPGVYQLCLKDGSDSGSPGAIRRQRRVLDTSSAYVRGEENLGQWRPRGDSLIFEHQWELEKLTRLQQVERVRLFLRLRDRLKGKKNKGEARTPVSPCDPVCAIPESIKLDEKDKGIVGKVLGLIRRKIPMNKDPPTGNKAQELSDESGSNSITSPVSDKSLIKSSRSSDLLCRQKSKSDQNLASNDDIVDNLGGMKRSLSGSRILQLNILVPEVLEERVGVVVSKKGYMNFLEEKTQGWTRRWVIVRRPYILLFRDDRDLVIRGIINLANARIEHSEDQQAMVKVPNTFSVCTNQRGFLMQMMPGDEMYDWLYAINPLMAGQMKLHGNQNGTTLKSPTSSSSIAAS
UniProt Q21049: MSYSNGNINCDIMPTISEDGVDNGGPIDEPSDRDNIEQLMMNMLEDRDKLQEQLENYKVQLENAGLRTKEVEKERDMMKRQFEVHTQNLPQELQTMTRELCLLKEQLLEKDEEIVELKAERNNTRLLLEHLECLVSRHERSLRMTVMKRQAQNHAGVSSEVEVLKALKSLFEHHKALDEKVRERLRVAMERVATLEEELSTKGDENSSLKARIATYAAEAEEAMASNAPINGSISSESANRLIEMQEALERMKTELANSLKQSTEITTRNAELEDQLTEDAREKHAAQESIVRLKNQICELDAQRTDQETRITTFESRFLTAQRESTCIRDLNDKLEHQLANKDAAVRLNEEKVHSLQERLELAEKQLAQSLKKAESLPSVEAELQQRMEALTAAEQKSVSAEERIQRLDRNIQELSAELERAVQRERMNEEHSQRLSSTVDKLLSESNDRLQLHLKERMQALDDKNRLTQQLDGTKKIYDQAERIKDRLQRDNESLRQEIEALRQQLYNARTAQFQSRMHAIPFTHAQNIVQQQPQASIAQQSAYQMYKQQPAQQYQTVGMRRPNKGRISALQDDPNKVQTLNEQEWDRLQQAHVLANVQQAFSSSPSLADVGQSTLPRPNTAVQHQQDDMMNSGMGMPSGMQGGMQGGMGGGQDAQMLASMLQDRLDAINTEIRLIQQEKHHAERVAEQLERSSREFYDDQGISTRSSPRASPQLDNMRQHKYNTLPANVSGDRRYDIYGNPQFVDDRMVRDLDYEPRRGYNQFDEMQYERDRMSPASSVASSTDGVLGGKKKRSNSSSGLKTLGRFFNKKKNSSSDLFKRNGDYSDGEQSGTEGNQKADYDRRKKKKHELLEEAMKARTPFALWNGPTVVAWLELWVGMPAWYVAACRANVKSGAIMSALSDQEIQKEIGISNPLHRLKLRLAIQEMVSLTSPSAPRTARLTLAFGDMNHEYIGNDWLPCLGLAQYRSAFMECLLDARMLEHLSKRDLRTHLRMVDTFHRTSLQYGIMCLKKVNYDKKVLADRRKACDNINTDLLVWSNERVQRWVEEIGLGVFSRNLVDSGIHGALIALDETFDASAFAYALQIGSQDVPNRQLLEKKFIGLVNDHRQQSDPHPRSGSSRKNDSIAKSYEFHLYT

Row | Substance | binding [1] | binding [2]
1 | SYD-2 (from UniProt Q21049 1-1139) | binds | –
2 | VN173::SYD-2 (from UniProt Q21049 1-1139) | – | binds
